# The other results are listed elsewhere or left out.
# Sequences of proteins named here, by UniProt entry; tags and fusion partners are left off. A change or cut given only in a name is not applied to a line headed by its entry.
# UniProt P15498: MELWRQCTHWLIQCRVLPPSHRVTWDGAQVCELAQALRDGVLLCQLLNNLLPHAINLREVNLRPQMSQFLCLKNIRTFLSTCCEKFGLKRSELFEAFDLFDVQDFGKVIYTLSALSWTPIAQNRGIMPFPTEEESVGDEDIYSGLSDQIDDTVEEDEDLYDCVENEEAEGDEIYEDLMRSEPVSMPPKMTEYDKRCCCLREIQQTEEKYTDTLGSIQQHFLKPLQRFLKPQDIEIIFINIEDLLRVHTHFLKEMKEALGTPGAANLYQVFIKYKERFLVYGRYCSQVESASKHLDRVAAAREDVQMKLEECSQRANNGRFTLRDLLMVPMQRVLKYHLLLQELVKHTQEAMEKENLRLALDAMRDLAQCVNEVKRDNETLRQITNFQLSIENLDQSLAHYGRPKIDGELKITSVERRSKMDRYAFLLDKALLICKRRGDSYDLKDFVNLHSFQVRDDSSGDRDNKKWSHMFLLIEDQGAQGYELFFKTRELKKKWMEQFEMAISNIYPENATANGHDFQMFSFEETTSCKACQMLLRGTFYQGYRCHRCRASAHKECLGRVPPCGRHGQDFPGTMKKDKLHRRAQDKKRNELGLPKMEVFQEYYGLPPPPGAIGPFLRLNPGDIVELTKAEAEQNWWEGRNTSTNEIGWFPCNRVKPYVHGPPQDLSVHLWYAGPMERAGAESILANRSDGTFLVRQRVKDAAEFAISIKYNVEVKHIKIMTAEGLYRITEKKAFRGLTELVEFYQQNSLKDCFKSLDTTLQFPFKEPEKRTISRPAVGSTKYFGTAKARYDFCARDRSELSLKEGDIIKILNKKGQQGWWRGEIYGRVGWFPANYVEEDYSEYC
# UniProt C9J7I0: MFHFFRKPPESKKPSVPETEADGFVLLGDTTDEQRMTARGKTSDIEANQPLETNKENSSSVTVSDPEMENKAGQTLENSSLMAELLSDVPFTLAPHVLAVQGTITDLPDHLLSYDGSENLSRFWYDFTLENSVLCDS
# UniProt O75691: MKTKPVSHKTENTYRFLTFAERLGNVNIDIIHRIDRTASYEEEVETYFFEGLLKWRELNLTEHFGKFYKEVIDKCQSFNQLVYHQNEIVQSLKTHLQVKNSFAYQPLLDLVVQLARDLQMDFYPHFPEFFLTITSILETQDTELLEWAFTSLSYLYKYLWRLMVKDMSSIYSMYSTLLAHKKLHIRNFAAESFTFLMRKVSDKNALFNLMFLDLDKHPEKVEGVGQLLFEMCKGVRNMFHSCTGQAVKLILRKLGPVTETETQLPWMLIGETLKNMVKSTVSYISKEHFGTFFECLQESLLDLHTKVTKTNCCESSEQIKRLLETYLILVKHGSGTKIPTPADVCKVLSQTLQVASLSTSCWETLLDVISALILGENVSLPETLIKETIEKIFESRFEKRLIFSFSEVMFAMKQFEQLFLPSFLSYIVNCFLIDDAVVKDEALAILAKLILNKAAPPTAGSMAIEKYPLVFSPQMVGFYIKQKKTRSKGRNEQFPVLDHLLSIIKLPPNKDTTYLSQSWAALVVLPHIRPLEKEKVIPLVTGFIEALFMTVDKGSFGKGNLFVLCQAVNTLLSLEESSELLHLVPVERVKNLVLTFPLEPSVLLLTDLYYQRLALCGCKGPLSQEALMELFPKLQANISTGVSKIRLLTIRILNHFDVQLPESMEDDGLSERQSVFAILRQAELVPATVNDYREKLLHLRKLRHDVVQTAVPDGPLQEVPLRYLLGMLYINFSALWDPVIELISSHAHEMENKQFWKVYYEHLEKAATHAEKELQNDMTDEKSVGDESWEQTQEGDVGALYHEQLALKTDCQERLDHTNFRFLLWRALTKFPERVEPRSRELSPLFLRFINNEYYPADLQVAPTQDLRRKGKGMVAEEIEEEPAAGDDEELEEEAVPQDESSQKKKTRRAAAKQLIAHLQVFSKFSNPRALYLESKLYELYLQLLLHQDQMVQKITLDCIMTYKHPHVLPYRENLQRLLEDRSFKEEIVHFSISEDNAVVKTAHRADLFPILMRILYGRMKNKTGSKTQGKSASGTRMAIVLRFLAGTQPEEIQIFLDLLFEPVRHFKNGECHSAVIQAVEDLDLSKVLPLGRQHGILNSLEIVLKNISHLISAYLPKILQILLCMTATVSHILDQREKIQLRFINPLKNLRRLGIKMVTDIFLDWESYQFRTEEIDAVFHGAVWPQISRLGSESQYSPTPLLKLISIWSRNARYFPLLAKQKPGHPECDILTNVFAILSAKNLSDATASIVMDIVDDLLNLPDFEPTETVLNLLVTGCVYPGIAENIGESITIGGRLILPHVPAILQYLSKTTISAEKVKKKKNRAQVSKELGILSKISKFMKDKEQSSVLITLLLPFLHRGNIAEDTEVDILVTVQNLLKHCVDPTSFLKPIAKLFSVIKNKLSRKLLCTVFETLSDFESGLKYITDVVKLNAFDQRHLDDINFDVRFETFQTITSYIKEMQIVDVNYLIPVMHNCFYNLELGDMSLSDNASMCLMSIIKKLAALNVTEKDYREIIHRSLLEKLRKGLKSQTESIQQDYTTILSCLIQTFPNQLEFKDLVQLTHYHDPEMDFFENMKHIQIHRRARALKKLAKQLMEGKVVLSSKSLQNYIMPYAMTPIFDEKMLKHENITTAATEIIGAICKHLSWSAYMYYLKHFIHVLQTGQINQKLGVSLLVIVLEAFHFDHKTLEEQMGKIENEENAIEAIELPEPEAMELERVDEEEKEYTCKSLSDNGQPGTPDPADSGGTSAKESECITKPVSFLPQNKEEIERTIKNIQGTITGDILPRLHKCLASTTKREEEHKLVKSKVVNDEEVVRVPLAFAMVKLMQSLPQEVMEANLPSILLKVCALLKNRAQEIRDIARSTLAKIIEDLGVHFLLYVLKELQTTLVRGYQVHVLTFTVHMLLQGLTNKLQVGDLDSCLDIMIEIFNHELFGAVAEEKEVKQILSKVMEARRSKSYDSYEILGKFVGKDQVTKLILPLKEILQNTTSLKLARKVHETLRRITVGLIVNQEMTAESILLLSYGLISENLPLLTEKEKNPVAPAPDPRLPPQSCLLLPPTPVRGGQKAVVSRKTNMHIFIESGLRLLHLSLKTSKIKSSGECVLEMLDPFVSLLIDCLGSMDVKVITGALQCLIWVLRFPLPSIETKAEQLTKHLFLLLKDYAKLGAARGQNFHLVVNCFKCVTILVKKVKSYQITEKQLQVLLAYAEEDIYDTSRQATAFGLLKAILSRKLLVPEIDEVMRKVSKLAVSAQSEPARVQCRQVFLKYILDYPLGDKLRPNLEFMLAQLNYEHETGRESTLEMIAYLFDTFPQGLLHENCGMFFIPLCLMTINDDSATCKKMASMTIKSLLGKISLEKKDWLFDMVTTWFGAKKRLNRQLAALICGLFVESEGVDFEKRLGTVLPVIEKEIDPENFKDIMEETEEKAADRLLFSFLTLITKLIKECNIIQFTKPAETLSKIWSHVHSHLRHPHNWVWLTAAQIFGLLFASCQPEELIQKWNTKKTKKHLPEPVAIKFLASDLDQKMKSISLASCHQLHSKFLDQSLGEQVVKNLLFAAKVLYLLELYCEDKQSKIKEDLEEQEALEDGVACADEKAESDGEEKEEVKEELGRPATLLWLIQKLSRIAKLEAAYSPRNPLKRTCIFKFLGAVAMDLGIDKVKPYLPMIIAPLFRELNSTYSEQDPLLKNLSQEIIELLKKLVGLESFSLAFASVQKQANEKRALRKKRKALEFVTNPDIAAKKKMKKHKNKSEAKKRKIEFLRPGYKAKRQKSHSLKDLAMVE
# UniProt Q5TAP6: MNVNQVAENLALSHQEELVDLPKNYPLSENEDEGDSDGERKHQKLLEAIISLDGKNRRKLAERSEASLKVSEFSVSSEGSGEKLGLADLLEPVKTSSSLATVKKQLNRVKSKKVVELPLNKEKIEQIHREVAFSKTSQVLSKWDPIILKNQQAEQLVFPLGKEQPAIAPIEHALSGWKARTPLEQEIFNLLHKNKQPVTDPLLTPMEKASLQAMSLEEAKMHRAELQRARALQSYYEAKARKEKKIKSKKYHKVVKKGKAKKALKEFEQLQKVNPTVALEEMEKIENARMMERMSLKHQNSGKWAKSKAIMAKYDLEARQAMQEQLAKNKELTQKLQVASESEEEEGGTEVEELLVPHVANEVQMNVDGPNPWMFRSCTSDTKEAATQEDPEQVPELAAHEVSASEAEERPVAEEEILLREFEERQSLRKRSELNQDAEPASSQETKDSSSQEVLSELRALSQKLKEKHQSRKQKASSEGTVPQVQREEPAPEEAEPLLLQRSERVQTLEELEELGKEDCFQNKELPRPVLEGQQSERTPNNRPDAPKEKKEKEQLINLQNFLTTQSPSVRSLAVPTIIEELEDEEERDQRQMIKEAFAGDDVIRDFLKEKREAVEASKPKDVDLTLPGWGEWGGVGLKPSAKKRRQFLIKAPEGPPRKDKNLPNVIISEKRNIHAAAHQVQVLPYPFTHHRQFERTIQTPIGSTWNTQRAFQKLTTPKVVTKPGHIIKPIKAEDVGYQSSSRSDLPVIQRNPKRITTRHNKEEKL
# UniProt Q13107: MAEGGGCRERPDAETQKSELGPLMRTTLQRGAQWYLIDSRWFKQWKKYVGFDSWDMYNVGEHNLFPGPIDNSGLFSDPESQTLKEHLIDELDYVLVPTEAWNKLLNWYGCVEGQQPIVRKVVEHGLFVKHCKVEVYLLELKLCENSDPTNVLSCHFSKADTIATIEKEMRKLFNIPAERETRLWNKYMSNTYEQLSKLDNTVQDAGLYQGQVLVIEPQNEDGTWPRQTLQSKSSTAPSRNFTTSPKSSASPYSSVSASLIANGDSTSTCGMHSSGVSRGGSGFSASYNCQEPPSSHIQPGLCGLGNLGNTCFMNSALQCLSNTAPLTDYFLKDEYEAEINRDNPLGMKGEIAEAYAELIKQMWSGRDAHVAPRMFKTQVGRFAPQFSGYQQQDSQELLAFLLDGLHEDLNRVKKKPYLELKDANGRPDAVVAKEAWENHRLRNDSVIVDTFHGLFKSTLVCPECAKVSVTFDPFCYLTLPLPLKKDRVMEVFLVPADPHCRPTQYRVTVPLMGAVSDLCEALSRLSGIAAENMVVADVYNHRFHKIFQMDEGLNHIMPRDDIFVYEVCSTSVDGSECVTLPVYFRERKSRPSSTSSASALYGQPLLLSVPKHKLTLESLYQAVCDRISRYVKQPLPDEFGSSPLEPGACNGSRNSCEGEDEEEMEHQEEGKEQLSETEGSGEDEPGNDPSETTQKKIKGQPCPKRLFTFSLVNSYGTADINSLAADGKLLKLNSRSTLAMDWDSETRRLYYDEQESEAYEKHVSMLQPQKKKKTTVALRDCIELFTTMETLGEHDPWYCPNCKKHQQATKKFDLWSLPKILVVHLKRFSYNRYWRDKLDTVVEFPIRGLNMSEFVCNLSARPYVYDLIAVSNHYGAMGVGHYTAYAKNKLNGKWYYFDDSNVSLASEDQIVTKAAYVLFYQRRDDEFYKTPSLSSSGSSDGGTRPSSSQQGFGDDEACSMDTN
# UniProt Q9Y5J1: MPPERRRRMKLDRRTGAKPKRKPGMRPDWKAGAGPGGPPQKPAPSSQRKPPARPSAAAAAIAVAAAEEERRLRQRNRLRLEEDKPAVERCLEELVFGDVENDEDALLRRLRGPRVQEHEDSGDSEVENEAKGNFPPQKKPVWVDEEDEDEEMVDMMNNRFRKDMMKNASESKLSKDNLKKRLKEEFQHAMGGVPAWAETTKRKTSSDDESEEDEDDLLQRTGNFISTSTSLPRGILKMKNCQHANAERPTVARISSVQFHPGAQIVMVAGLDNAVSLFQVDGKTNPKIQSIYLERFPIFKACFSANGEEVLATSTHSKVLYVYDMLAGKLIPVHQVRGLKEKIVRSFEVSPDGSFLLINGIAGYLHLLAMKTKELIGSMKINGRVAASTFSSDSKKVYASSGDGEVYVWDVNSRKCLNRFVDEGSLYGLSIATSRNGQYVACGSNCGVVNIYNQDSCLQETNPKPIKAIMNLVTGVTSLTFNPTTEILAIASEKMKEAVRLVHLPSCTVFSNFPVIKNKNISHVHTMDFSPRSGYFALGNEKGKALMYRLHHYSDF
# UniProt O14957: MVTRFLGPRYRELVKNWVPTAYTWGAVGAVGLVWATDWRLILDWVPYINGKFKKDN
# UniProt Q8IX04: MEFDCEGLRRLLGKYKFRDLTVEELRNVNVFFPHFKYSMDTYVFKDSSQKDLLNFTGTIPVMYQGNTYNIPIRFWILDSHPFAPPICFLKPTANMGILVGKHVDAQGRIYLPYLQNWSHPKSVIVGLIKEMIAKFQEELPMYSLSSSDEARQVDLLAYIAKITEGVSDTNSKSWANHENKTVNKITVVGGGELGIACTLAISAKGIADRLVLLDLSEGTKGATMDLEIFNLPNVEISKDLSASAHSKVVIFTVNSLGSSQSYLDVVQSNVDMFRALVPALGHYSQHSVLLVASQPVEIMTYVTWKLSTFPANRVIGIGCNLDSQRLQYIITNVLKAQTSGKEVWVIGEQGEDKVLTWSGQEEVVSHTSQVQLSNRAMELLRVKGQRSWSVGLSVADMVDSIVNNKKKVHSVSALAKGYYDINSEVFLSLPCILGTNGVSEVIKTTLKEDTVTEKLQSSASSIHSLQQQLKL
# Assays:
# Assay in all cases: log2 fold change, soluble protein after heating vs DMSO (PISA); higher = thermal stabilisation; K562 cells, 10 uM, 30 min; active = over 0.2 and 3.5 SD of the protein, either way, in both replicates (recomputed)
# [1] = compound: CCCc1cc(C)[nH]c(=O)c1CNC(=O)c1cc(-c2ccnc(N3CCN(C)CC3)c2)cc2c1cnn2C(C)C
# Procedure, shortened: (§1)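 Soluble protein was defined as the supernatant after 21,000xg for 90 min. It came from K562 cells at 2×10^6 cells/mL given 10 μM compound for 30 min, heated in aliquots for 3 min across 48°C-58°C, pooled, and extracted in PBS with 0.5% NP-40 at 4°C, and was quantified by TMTpro 16plex LC-MS/MS with equalised channel sums. Thermal stability against control samples, from duplicates, is reported as log2 fold change.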
# givinostat = compound: CCN(CC)Cc1ccc2cc(COC(=O)Nc3ccc(C(=O)NO)cc3)ccc2c1 [givinostat]
# Procedure, shortened: as §1
# [2] = compound: CC1=C(C=C(C=C1)NC(=O)C2=CC(=CC=C2)C(C)(C)C#N)NC3=CC4=C(C=C3)N=CN(C4=O)C
# Procedure, shortened: as §1
# [3] = compound: CC1=CC=C(C=C1)SC2=C3C=C(SC3=CN=C2)C(=O)N
# Procedure, shortened: as §1
# Nexturastat A = compound: CCCCN(Cc1ccc(C(=O)NO)cc1)C(=O)Nc1ccccc1 [Nexturastat A]
# Procedure, shortened: as §1
# vemurafenib = compound: CCCS(=O)(=O)Nc1ccc(F)c(C(=O)c2c[nH]c3ncc(-c4ccc(Cl)cc4)cc23)c1F [vemurafenib]
# Procedure, shortened: as §1
# [4] = compound: CCCS(=O)(=O)Nc1ccc(F)c(C(=O)c2c[nH]c3ncc(Cl)cc23)c1F
# Procedure, shortened: as §1
# barasertib = compound: CCN(CCCOc1ccc2c(Nc3cc(CC(=O)Nc4cccc(F)c4)[nH]n3)ncnc2c1)CCOP(=O)(O)O [barasertib]
# Procedure, shortened: as §1
# [5] = compound: CC1=NC(=CC=C1)C2=C(N=C(N2)C(C)(C)C)C3=CC4=NC=CN=C4C=C3
# Procedure, shortened: as §1
# [6] = compound: CC1=C(C=C(C=C1)NC(=O)C2=CC(=CC=C2)N(C)C)NC(=O)C3=CC=C(C=C3)O
# Procedure, shortened: as §1
target,measurement,setting,value
UBQLN1 isoform 2 (UniProt Q9UMX0),log2 fold change,[1],inactive: -0.087
same,log2 fold change,givinostat,inactive: -0.022
UFM1 isoform 2 (UniProt P61960),log2 fold change,[2],inactive: 0.004
same,log2 fold change,[3],inactive: -0.01
same,log2 fold change,Nexturastat A,active: -0.36
same,log2 fold change,vemurafenib,inactive: -0.13
same,log2 fold change,[4],inactive: 0.001
same,log2 fold change,[1],inactive: 0.127
same,log2 fold change,givinostat,inactive: -0.146
same,log2 fold change,barasertib,inactive: 0.053
USP22 (UniProt Q9UPT9),log2 fold change,[2],inactive: 0.014
same,log2 fold change,[3],inactive: 0.005
same,log2 fold change,[5],inactive: 0.003
same,log2 fold change,Nexturastat A,inactive: 0.071
same,log2 fold change,vemurafenib,inactive: -0.066
same,log2 fold change,[4],inactive: 0.038
same,log2 fold change,[1],inactive: -0.012
same,log2 fold change,givinostat,inactive: 0.035
same,log2 fold change,barasertib,inactive: 0.167
UHRF1 isoform 2 (UniProt Q96T88),log2 fold change,givinostat,inactive: 0.26
URM1 isoform 2 (UniProt Q9BTM9),log2 fold change,[2],inactive: -0.071
same,log2 fold change,[6],inactive: -0.035
same,log2 fold change,[5],inactive: -0.085
same,log2 fold change,vemurafenib,inactive: 0.302
same,log2 fold change,[1],inactive: 0.025
same,log2 fold change,givinostat,inactive: 0.044
same,log2 fold change,barasertib,inactive: 0.082
USP27X (UniProt A6NNY8),log2 fold change,[6],inactive: -0.032
same,log2 fold change,Nexturastat A,inactive: 0.074
VCPIP1 (UniProt Q96JH7),log2 fold change,[2],inactive: -0.053
same,log2 fold change,Nexturastat A,inactive: 0.516
same,log2 fold change,vemurafenib,inactive: -0.535
same,log2 fold change,givinostat,inactive: -0.157
VASN (UniProt Q6EMK4),log2 fold change,[2],inactive: 0.006
same,log2 fold change,Nexturastat A,inactive: 0.001
same,log2 fold change,vemurafenib,inactive: -0.13
same,log2 fold change,givinostat,inactive: 0.031
same,log2 fold change,barasertib,inactive: -0.006
UQCC3 (UniProt Q6UW78),log2 fold change,Nexturastat A,inactive: -0.005
same,log2 fold change,barasertib,inactive: 0.154
UNC13A (UniProt Q9UPW8),log2 fold change,[2],inactive: 0.117
same,log2 fold change,givinostat,inactive: -0.159
same,log2 fold change,barasertib,inactive: -0.102
UFSP1 (UniProt Q6NVU6),log2 fold change,givinostat,inactive: 0.049
VAV1 (UniProt P15498),log2 fold change,[6],inactive: 0.081
same,log2 fold change,Nexturastat A,inactive: 0.192
same,log2 fold change,vemurafenib,inactive: 0.111
same,log2 fold change,[1],inactive: -0.178
same,log2 fold change,givinostat,inactive: 0.285
UMAD1 (UniProt C9J7I0),log2 fold change,[6],inactive: -0.034
same,log2 fold change,[3],inactive: 0.062
same,log2 fold change,[5],inactive: 0.013
same,log2 fold change,[4],inactive: -0.141
same,log2 fold change,[1],inactive: -0.066
same,log2 fold change,givinostat,inactive: -0.237
same,log2 fold change,barasertib,inactive: -0.08
UBR3 isoform 4 (UniProt Q6ZT12),log2 fold change,[2],inactive: 0.017
same,log2 fold change,[3],inactive: 0.038
same,log2 fold change,[5],inactive: 0.069
same,log2 fold change,Nexturastat A,inactive: 0.105
same,log2 fold change,vemurafenib,inactive: -0.044
same,log2 fold change,[4],inactive: -0.119
same,log2 fold change,givinostat,inactive: -0.067
same,log2 fold change,barasertib,inactive: -0.239
VAMP3 (UniProt Q15836),log2 fold change,[5],inactive: 0.038
same,log2 fold change,Nexturastat A,inactive: -0.059
same,log2 fold change,[1],inactive: 0.007
same,log2 fold change,givinostat,inactive: -0.014
same,log2 fold change,barasertib,inactive: -0.031
USP12 (UniProt O75317),log2 fold change,[6],inactive: 0.042
same,log2 fold change,vemurafenib,inactive: -0.079
same,log2 fold change,[1],inactive: 0.082
USP54 (UniProt Q70EL1),log2 fold change,[3],inactive: -0.041
same,log2 fold change,vemurafenib,inactive: 0.099
same,log2 fold change,[4],inactive: 0.055
same,log2 fold change,[1],inactive: -0.082
same,log2 fold change,givinostat,inactive: -0.157
same,log2 fold change,barasertib,inactive: 0.019
UBN2 (UniProt Q6ZU65),log2 fold change,[5],inactive: 0.163
same,log2 fold change,vemurafenib,inactive: 0.043
UTP20 (UniProt O75691),log2 fold change,[3],inactive: 0.037
same,log2 fold change,Nexturastat A,active: 0.755
same,log2 fold change,[4],inactive: -0.086
same,log2 fold change,givinostat,inactive: 0.463
UBQLN3 (UniProt Q9H347),log2 fold change,[6],inactive: -0.098
same,log2 fold change,[3],inactive: -0.149
same,log2 fold change,[5],inactive: 0.113
same,log2 fold change,Nexturastat A,inactive: -0.036
same,log2 fold change,vemurafenib,inactive: -0.045
same,log2 fold change,[4],inactive: 0.033
same,log2 fold change,[1],inactive: -0.146
same,log2 fold change,givinostat,inactive: 0.092
UNK (UniProt Q9C0B0),log2 fold change,[2],inactive: 0.053
same,log2 fold change,[3],inactive: -0.02
same,log2 fold change,[5],inactive: 0.045
same,log2 fold change,vemurafenib,inactive: -0.077
same,log2 fold change,[4],inactive: -0.029
same,log2 fold change,[1],inactive: 0.04
same,log2 fold change,givinostat,inactive: -0.108
same,log2 fold change,barasertib,inactive: -0.012
UTP14C (UniProt Q5TAP6),log2 fold change,[2],inactive: 0.084
same,log2 fold change,[5],inactive: 0.098
same,log2 fold change,Nexturastat A,inactive: -0.075
same,log2 fold change,givinostat,inactive: -0.042
UPP1 (UniProt Q16831),log2 fold change,[3],inactive: 0.062
same,log2 fold change,[5],inactive: -0.003
same,log2 fold change,[4],inactive: 0.091
USP16 (UniProt Q9Y5T5),log2 fold change,[6],inactive: -0.012
same,log2 fold change,[5],inactive: -0.053
same,log2 fold change,Nexturastat A,inactive: 0.279
same,log2 fold change,vemurafenib,inactive: 0.008
same,log2 fold change,[1],inactive: -0.005
same,log2 fold change,givinostat,inactive: 0.1
same,log2 fold change,barasertib,inactive: -0.262
USP46 (UniProt P62068),log2 fold change,[2],inactive: -0.073
same,log2 fold change,[3],inactive: -0.036
same,log2 fold change,[5],inactive: -0.058
same,log2 fold change,Nexturastat A,inactive: 0.21
same,log2 fold change,vemurafenib,inactive: -0.035
same,log2 fold change,[4],inactive: -0.084
same,log2 fold change,givinostat,inactive: 0.247
USB1 (UniProt Q9BQ65),log2 fold change,[3],inactive: 0.128
same,log2 fold change,vemurafenib,inactive: 0.058
same,log2 fold change,[4],inactive: -0.046
same,log2 fold change,givinostat,inactive: 0.286
USP1 (UniProt O94782),log2 fold change,[2],inactive: -0.014
same,log2 fold change,[6],inactive: -0.059
same,log2 fold change,[5],inactive: 0.182
same,log2 fold change,Nexturastat A,inactive: -0.065
same,log2 fold change,vemurafenib,inactive: 0.032
same,log2 fold change,givinostat,inactive: 0.044
same,log2 fold change,barasertib,inactive: -0.019
USP4 (UniProt Q13107),log2 fold change,[5],inactive: -0.16
URB2 (UniProt Q14146),log2 fold change,[5],inactive: -0.188
same,log2 fold change,givinostat,inactive: -0.206
same,log2 fold change,barasertib,inactive: -0.014
UTP18 (UniProt Q9Y5J1),log2 fold change,[2],inactive: 0.066
same,log2 fold change,[6],inactive: 0.237
same,log2 fold change,[5],inactive: -0.335
same,log2 fold change,Nexturastat A,inactive: 0.325
same,log2 fold change,givinostat,inactive: -0.064
same,log2 fold change,barasertib,inactive: -0.113
UPF3A (UniProt Q9H1J1),log2 fold change,[2],inactive: -0.158
same,log2 fold change,[5],inactive: -0.196
same,log2 fold change,Nexturastat A,inactive: 0.435
same,log2 fold change,givinostat,inactive: 0.001
UBR1 (UniProt Q8IWV7),log2 fold change,[2],inactive: -0.104
same,log2 fold change,Nexturastat A,inactive: -0.017
same,log2 fold change,[1],inactive: 0.089
same,log2 fold change,givinostat,inactive: 0.296
same,log2 fold change,barasertib,inactive: -0.005
UQCR11 (UniProt O14957),log2 fold change,[6],inactive: -0.047
same,log2 fold change,[5],inactive: 0.048
same,log2 fold change,[1],inactive: -0.067
same,log2 fold change,givinostat,inactive: -0.007
UGP2 (UniProt C9JWG0),log2 fold change,[2],inactive: 0.073
same,log2 fold change,[5],inactive: -0.162
same,log2 fold change,[1],inactive: -0.011
same,log2 fold change,barasertib,inactive: 0
UEVLD (UniProt Q8IX04),log2 fold change,[2],inactive: -0.109
same,log2 fold change,[5],inactive: -0.287
same,log2 fold change,Nexturastat A,inactive: 0.131
same,log2 fold change,vemurafenib,inactive: 0.203
same,log2 fold change,[1],inactive: -0.14
same,log2 fold change,givinostat,inactive: 0.226
same,log2 fold change,barasertib,inactive: -0.241
UNG (UniProt P13051),log2 fold change,[2],inactive: 0.057
same,log2 fold change,Nexturastat A,inactive: 0.127
same,log2 fold change,vemurafenib,inactive: 0.014
same,log2 fold change,[1],inactive: 0.071
same,log2 fold change,givinostat,inactive: -0.028
same,log2 fold change,barasertib,inactive: -0.027
UBTF (UniProt P17480),log2 fold change,[2],inactive: -0.036
same,log2 fold change,[6],inactive: -0.032
same,log2 fold change,[5],inactive: 0.084
same,log2 fold change,[1],inactive: -0.293
same,log2 fold change,givinostat,inactive: 0.147
same,log2 fold change,barasertib,inactive: -0.02
UNC5B (UniProt Q8IZJ1),log2 fold change,Nexturastat A,inactive: -0.003
same,log2 fold change,vemurafenib,inactive: -0.081

# Quoted at random: six records from the list.
target,measurement,setting,value
UFSP1 (UniProt Q6NVU6),log2 fold change,givinostat,inactive: 0.049
USP22 (UniProt Q9UPT9),log2 fold change,[2],inactive: 0.014
USP1 (UniProt O94782),log2 fold change,givinostat,inactive: 0.044
USB1 (UniProt Q9BQ65),log2 fold change,[3],inactive: 0.128
UBR1 (UniProt Q8IWV7),log2 fold change,barasertib,inactive: -0.005
UTP20 (UniProt O75691),log2 fold change,givinostat,inactive: 0.463

# From the supplement of paper PMC10849652
